PubChem BioAssay AID1159578, Peter MacCallum Cancer Centre – 2015
Purpose: 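siRNA pools altering how lymphatic endothelial cells close a scratch wound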 (primary screen). Cells: human lymphatic endothelial cells. Knock-down reagent: siRNA pool against human genes, 40 nM. Time to read-out: 48 h after transfection. Measured: 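High-content imaging of dye-stained cells in a scratch assay measures filled wound area and nuclei per well; duplicate means given as ratio to mock and robust z-score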. Scale: migration robust z-score: higher = faster migration into the scratch; nuclei per well: higher = more cells in the well. Active means: 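Pools averaging fewer than 3300 nuclei are never called; remaining pools count as changed when migration robust z lies outside -2 to 2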. Meaning of the calls: active = migration changed; inactive = no migration change, or too few cells.
Here is a random part of about 18,000 deposited reagents. About 1,030 of them (5.7%) were called active. 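Inactive calls also include pools with fewer than 3300 nuclei, whose migration was not assessed.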 Raw values are not corrected between plates. Further read-outs or replicates are left out here.

For TTC9B, how do the results read?
migration robust z-score: 0.08; nuclei per well, duplicate mean: 4322; Call: inactive

Which result is listed for APH1A?
migration robust z-score: 0.48; nuclei per well, duplicate mean: 6212; Call: inactive

How did the screen score FGD3?
migration robust z-score: -0.44; nuclei per well, duplicate mean: 5054; Call: inactive

What is on record for SWSAP1?
migration robust z-score: 1.27; nuclei per well, duplicate mean: 6380; Call: inactive

With KCNC1, what does the deposit list?
migration robust z-score: -0.52; nuclei per well, duplicate mean: 4978; Call: inactive

With TCF12, what was measured?
migration robust z-score: -2.02; nuclei per well, duplicate mean: 5166; Call: active

How did the screen score TSBP1?
migration robust z-score: -0.57; nuclei per well, duplicate mean: 4816; Call: inactive

For DOK5, what was measured?
migration robust z-score: 0.97; nuclei per well, duplicate mean: 5636; Call: inactive

With H2AX, what was measured?
migration robust z-score: -0.94; nuclei per well, duplicate mean: 3808; Call: inactive

What did the screen give for HNRNPF?
migration robust z-score: -0.46; nuclei per well, duplicate mean: 4092; Call: inactive

For MRPL38, what does the deposit list?
migration robust z-score: -0.52; nuclei per well, duplicate mean: 5623; Call: inactive

For SMURF1, what was measured?
migration robust z-score: 1.19; nuclei per well, duplicate mean: 5220; Call: inactive

With PCDHA2, how do the results read?
migration robust z-score: 0.18; nuclei per well, duplicate mean: 5522; Call: inactive

For MGARP, what does the deposit list?
migration robust z-score: 0.54; nuclei per well, duplicate mean: 6388; Call: inactive

For TBCD, what does the deposit list?
migration robust z-score: -1.11; nuclei per well, duplicate mean: 5167; Call: inactive

For ARHGEF5, how do the results read?
migration robust z-score: 1.05; nuclei per well, duplicate mean: 5696; Call: inactive

What is on record for TMEM132D?
migration robust z-score: -0.45; nuclei per well, duplicate mean: 5729; Call: inactive

For GLIPR1, what was measured?
migration robust z-score: 3.31; nuclei per well, duplicate mean: 5799; Call: active

For LYG2, how do the results read?
migration robust z-score: -0.16; nuclei per well, duplicate mean: 6592; Call: inactive

Which result is listed for GAMT?
migration robust z-score: 0.16; nuclei per well, duplicate mean: 6285; Call: inactive

For OR51G2, what was measured?
migration robust z-score: 0.84; nuclei per well, duplicate mean: 5676; Call: inactive

With GSC, what does the deposit list?
migration robust z-score: -0.67; nuclei per well, duplicate mean: 6102; Call: inactive

For SRXN1, what was measured?
migration robust z-score: 0.08; nuclei per well, duplicate mean: 5858; Call: inactive

What did the screen give for TMEM42?
migration robust z-score: 0.44; nuclei per well, duplicate mean: 5795; Call: inactive

How did the screen score TCFL5?
migration robust z-score: -0.6; nuclei per well, duplicate mean: 4214; Call: inactive

What did the screen give for FRRS1?
migration robust z-score: -1.87; nuclei per well, duplicate mean: 5462; Call: inactive

For KRT9, what was measured?
migration robust z-score: -0.44; nuclei per well, duplicate mean: 5090; Call: inactive

No new results follow: entries from further up.
PCDHA2: migration robust z-score = 0.18; nuclei per well, duplicate mean = 5522; Call = inactive
MGARP: migration robust z-score = 0.54; nuclei per well, duplicate mean = 6388; Call = inactive
